Test results published in publication PMC5564810.
Results are given in words; binding and its absence hold for the method and conditions named. In cells and extracts the contact can be indirect. Some results given as binding are weak or reduced against the parent protein; the word gives no strength.

By UniProt entry, the sequences of proteins in these tests, tags left out. Where a name states a change or a piece, a line headed by the entry shows the natural chain unless it says otherwise. Chains listed by the source or under a name are the forms on record and can include a tag or linker. Residues count along the entry.
UniProt P17931: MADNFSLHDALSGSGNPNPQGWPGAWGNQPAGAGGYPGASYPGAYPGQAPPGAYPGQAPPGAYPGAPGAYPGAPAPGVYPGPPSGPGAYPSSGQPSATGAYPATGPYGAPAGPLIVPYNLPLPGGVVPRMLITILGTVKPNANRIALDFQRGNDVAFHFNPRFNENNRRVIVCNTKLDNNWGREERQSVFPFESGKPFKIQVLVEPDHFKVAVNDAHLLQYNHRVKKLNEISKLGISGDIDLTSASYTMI
His-tagged G69-250 (Gal-3 residues 69-250): residues 69-250 of P17931
UniProt P08575, residues 26-1306: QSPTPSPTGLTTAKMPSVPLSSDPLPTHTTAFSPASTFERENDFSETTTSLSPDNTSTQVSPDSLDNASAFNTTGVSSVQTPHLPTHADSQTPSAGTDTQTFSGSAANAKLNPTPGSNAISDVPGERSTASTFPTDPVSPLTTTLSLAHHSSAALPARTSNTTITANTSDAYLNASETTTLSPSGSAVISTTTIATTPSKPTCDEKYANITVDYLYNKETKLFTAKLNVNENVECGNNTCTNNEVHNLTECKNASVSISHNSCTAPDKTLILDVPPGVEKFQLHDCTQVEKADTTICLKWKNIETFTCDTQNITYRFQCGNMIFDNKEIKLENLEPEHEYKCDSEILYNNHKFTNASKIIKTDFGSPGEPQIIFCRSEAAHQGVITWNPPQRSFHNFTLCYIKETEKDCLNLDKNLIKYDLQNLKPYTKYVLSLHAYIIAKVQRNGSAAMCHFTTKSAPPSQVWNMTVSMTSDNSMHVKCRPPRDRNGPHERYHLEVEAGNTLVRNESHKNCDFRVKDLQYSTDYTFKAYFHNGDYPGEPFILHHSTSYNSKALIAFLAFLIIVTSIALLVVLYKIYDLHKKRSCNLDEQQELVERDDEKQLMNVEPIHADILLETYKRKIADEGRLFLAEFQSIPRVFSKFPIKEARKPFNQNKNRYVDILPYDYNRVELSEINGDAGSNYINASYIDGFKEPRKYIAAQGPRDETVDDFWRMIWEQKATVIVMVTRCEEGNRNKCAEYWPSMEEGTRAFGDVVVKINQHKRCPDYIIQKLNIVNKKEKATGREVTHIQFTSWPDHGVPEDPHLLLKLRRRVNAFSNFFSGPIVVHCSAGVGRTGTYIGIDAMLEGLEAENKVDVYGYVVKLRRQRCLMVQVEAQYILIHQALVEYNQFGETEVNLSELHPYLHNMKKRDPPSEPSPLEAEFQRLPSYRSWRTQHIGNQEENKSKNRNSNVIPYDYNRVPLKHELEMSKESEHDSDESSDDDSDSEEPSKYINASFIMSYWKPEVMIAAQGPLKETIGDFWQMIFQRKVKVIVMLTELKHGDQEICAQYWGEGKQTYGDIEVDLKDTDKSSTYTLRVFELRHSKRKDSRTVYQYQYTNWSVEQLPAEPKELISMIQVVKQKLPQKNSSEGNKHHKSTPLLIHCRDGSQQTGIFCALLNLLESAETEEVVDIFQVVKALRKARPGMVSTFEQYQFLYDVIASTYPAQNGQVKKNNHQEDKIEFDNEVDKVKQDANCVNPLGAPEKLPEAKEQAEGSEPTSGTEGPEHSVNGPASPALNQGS

What was measured:
[1] = biological target: His-tagged G69-250 (Gal-3 residues 69-250) (human) (UniProt P17931); assay: pull-down; 20 ug His-Gal-3 or His-G69-250 immobilised on 20 uL Ni-NTA beads (2 h, 4 C), washed in PBS, incubated with Jurkat cell lysate (5x10^6 cells) 2 h at 4 C; CD45 detected by western blotting; only the target purified
[2] = biological target: His-tagged full-length Gal-3 (galectin-3) (human) (UniProt P17931); assay: as above

binding [1]: binds
binding [2]: binds
Substance: CD45 (from UniProt P08575 26-1306) (receptor)
